Data as given in publication PMC10484118.
No constants are given. Whether binding was seen depends on the method and setting. Binding seen in cells or lysates may run through a third protein. Here binding means that the protein was enriched with, or labelled near, the bait; the list need not be complete.

The chains behind the UniProt entries cited, without tags or fusion partners.
UniProt Q13547: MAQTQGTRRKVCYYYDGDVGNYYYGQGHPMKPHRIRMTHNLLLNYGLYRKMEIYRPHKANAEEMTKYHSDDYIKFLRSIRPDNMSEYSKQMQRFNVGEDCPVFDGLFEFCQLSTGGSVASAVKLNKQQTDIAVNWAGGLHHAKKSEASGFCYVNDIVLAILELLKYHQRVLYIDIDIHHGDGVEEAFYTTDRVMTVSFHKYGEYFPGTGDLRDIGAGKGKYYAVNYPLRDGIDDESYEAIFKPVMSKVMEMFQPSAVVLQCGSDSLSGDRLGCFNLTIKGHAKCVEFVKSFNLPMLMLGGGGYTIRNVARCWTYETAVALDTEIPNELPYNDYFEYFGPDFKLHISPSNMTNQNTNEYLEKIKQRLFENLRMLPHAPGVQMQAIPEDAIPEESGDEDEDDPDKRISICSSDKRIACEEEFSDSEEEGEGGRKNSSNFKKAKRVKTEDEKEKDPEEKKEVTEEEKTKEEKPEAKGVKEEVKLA
UniProt O15379: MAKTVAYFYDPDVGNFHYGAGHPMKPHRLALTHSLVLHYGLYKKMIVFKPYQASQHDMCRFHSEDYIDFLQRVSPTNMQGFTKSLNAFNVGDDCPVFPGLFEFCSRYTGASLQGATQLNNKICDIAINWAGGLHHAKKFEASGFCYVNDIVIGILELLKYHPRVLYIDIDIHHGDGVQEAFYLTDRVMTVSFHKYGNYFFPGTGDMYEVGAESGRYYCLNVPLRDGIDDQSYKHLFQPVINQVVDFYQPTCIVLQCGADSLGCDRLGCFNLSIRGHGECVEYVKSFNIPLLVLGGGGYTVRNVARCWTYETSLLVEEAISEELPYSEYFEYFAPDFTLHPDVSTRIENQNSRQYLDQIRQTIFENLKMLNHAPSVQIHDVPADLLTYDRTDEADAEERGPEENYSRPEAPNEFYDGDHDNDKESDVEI
UniProt P05412: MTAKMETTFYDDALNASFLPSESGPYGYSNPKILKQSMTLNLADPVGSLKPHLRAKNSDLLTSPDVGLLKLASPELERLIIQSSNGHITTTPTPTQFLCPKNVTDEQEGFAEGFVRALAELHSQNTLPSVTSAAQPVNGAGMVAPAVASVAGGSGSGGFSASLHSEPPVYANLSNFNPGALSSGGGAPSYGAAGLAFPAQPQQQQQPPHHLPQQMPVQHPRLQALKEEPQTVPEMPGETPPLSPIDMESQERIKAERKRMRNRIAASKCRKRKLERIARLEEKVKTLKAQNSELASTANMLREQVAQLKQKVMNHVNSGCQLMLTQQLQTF
UniProt Q14686: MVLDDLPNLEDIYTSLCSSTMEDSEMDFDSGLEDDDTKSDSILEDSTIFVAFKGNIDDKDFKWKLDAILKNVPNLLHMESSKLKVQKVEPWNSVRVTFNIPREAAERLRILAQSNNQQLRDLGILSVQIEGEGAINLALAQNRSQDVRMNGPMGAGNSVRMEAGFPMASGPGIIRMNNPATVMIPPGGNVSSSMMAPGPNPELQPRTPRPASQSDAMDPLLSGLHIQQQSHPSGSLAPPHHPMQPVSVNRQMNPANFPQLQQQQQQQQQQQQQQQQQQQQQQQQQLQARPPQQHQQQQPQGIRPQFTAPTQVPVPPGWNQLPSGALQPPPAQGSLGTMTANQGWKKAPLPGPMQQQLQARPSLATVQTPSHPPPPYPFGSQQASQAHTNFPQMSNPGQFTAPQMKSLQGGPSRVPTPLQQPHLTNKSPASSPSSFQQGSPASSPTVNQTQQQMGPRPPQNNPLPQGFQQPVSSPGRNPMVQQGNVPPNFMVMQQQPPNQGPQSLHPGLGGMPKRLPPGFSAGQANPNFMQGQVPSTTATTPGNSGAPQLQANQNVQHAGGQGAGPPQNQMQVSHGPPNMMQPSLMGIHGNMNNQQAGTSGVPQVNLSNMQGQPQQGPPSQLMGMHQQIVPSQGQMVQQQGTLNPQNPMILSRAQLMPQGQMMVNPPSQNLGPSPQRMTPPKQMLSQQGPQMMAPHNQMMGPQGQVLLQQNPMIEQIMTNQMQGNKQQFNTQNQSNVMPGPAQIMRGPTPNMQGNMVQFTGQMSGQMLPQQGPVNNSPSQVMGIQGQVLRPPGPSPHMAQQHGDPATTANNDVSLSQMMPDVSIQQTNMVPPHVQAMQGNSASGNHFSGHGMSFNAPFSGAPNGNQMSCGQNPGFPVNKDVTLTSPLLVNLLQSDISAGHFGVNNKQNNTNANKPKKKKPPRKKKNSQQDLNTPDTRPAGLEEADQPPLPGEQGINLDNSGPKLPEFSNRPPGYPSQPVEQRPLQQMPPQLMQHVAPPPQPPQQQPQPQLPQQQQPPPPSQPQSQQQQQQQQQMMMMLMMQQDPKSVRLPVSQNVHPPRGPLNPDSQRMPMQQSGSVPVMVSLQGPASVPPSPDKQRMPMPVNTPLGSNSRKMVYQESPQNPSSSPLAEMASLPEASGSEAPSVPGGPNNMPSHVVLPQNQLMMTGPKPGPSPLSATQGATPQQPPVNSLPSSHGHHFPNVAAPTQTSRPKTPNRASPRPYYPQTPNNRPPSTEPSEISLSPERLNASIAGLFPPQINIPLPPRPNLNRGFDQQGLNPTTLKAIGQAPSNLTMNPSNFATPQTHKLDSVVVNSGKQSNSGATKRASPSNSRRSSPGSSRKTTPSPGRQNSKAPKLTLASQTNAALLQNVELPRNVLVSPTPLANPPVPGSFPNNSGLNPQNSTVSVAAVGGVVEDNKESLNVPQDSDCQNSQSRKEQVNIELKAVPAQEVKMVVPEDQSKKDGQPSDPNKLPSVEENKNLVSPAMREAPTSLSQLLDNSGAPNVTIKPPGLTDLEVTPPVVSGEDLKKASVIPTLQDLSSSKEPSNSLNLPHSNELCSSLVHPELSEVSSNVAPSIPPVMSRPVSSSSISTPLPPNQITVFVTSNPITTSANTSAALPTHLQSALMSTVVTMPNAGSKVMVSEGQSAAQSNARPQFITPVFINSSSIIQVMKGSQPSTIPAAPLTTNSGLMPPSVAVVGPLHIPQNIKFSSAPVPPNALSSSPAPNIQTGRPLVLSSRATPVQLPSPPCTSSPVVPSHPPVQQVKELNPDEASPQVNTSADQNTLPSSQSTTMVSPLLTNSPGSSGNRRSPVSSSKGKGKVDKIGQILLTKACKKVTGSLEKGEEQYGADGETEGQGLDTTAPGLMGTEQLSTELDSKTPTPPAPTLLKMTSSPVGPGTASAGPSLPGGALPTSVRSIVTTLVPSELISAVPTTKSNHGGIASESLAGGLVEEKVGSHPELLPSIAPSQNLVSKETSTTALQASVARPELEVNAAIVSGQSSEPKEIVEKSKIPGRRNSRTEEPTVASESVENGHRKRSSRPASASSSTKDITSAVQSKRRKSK
UniProt Q01196: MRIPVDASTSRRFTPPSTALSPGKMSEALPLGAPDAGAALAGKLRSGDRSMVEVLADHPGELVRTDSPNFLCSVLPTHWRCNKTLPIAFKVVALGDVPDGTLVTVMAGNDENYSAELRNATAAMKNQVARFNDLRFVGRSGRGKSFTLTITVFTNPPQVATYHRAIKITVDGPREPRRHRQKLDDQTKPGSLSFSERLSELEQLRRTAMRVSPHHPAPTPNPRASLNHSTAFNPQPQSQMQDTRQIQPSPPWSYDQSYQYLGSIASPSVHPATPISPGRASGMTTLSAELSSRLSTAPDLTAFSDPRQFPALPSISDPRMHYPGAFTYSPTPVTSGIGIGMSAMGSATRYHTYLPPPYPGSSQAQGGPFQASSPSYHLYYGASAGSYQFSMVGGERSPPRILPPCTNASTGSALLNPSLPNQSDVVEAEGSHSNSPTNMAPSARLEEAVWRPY
UniProt P40763: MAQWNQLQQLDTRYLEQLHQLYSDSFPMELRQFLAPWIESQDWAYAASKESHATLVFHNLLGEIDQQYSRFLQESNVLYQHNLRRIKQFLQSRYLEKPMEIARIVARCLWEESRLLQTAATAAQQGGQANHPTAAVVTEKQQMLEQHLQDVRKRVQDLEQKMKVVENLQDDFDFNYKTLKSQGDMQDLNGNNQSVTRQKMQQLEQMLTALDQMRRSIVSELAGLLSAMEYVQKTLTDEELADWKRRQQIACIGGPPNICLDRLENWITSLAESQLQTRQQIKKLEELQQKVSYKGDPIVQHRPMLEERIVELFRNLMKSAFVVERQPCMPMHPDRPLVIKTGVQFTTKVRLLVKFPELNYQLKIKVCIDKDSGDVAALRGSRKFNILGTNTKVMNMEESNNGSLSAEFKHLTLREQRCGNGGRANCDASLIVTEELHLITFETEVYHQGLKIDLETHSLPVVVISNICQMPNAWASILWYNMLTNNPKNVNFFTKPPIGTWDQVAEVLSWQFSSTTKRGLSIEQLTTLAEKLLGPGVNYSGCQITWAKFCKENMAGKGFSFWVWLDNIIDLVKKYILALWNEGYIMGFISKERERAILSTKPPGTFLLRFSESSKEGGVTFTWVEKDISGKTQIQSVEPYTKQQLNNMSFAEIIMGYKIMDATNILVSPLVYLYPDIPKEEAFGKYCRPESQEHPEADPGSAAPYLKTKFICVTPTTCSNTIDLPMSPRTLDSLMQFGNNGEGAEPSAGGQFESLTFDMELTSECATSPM

T1: FOXA1 (human (endogenous in NCI-H441, NCI-H3255, NCI-H2009, HCC-44)) (UniProt P55317)
T1 sequence: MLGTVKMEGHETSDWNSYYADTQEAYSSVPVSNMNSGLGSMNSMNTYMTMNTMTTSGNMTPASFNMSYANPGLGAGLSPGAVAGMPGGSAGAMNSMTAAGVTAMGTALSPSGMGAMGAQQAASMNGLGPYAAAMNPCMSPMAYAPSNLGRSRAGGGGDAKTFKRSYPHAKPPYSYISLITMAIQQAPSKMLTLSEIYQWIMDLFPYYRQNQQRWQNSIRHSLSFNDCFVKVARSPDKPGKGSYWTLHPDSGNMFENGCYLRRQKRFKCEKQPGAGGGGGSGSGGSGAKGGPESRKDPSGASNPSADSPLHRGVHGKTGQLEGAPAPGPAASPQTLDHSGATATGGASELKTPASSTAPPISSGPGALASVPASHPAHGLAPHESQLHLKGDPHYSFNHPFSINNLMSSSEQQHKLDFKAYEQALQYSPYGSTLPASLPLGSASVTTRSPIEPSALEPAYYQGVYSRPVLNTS

B1: JUNB (protein, UniProt P17275 1-347)
chain: MCTKMEQPFYHDDSYTATGYGRAPGGLSLHDYKLLKPSLAVNLADPYRSLKAPGARGPGPEGGGGGSYFSGQGSDTGASLKLASSELERLIVPNSNGVITTTPTPPGQYFYPRGGGSGGGAGGAGGGVTEEQEGFADGFVKALDDLHKMNHVTPPNVSLGATGGPPAGPGGVYAGPEPPPVYTNLSSYSPASASSGGAGAAVGTGSSYPTTTISYLPHAPPFAGGHPAQLGLGRGASTFKEEPQTVPEARSRDATPPVSPINMEDQERIKVERKRLRNRLAATKCRKRKLERIARLEDKVKTLKAENAGLSSTAGLLREQVAQLKQKVMTHVSNGCQLLLGVKGHAF

target: T1, FOXA1 (human (endogenous in NCI-H441, NCI-H3255, NCI-H2009, HCC-44)); test: affinity purification with mass spectrometry; RIME: endogenous FOXA1 immunoprecipitated (Abcam ab5089) from cells cross-linked with disuccinimidyl glutarate and formaldehyde; FOXA1-dependent NSCLC lines (GR peptides in H441, HCC-44, H3255); three replicates, isotype IgG control; LC/MS-MS

Row | binding | Molecule
1 | binds | HDAC1 (from UniProt Q13547 1-482)
2 | binds | HDAC3 (from UniProt O15379 1-428)
3 | binds | JUN (from UniProt P05412 1-331)
4 | binds | NCOA6 (from UniProt Q14686 1-2063)
5 | binds | NCOR1 (from UniProt O75376 1-2440)
6 | binds | RUNX1 (from UniProt Q01196 1-453)
7 | binds | STAT3 (from UniProt P40763 1-770)
8 | binds | B1
